The values that follow come from patent US20090069418A1, “Compositions and Methods for the Treatment of Disorders Associated with Aberrant Vasodilation” (priority 2007, published 2009).

The series concerns mice. The format is in vivo. To be noted: given prior to LCA occlusion (PRE). An excerpt: Male mice between the ages of 16-24 weeks were anesthetized with isoflurane (induction 4-5 vol %; maintenance 1-2 vol %), intubated with a 20G plastic IV catheter, and mechanically ventilated using a rodent ventilator (Inspira, volume-controlled, Harvard Apparatus, MA). ECG and rectal temperature were continuously monitored using a PC-based recording device (PowerLab 8/30, ADInstruments, Colorado Springs, Colo.). The animals were positioned in a right lateral decubital position on a heating pad and rectal temperature was maintained at 37° C. throughout the experiment. A PE-10 catheter was inserted into the left jugular vein for intravenous drug infusion. Using a dissecting microscope, a left-sided thoracotomy was performed in the 4th intercostal space. […] A ligature (8-0 Monosof MV-135-4, ⅜ 5 mm tapered needle, Syneture, Norwalk, Colo.) was placed around the left coronary artery (LCA) approximately 2 mm distal to the left atrial margin. The suture was fed through a short section of PE-10 tubing to form a snare to allow temporary occlusion. The LCA was occluded for 40 minutes; occlusion was confirmed by persistent ECG changes during occlusion and visual paling of the left ventricle (LV). After 40 minutes the snare was released and reperfusion was confirmed with visual hyperemia of the LV and return of the ECG changes. After 2 hours of reperfusion the LCA was re-occluded and fluorescent polymer microspheres (0.4% solution, diameter 1-10 μm; Duke Scientific Corporation, Palo Alto, Calif.) were infused via needle puncture of the LV apex. […] Heart was then excised, rinsed in normal saline, and the right and left atria were removed under the dissecting microscope. The remaining left and right ventricles were weighed and then sliced into seven sections (d=1 mm) for imaging and staining.
Heart sections were immediately photographed with a digital camera (Canon Powershot A620) under UV light for determination of AAR. Infarct size (I) was determined by staining the heart sections in 1% 2,3,5 triphenyltetrazolium chloride (TTC) in phosphate buffer at pH 7.4 for 10 minutes, followed by 10% neutral buffered formalin (NBF) bath overnight. Pictures were taken the next day under full spectrum light. TTC stained non-infarcted myocardium red, while infarcted myocardium remained white. Both AAR and I areas were calculated in a blinded fashion using standard imaging software (Photoshop Elements 4). A calibration ruler was present in each picture to convert pixels into volume. TTC slices were volume corrected for dehydration following formalin immersion.
The 14,15-EET was obtained from BIOMOL (Plymouth Meeting, Pa.). It was dissolved in a vehicle composed of 100% ethanol and saline (1:3), resulting in a final ethanol solution of 25%. […]

Consider `C=CCN1C[C@H](C)N([C@@H](c2ccccc2)c2ccc(C(=O)N(CC)CC)cc2)C[C@H]1C` [SNC-162], for which the AAR/Biventricular volume was 27 ± 2%, the “Area At Risk” value came out at 31 ± 3 mm^3, the “Biventricular Weight” value was determined as 115 ± 6 mg and the “Body Weight” value amounted to 26 ± 1 g.
